Measured values from the supplement of paper PMC10849652.
The other results are listed elsewhere or left out.

Amino acid sequences for entries named in this document (tags omitted). A change or cut given only in a name is not applied to a line headed by its entry.
UniProt Q96GF1: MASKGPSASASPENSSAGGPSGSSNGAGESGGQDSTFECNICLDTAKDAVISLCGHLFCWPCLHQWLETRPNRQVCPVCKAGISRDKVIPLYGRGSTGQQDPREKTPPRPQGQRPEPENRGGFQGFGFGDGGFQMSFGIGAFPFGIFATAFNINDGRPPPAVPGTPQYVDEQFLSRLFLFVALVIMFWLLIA
UniProt Q9BXT8: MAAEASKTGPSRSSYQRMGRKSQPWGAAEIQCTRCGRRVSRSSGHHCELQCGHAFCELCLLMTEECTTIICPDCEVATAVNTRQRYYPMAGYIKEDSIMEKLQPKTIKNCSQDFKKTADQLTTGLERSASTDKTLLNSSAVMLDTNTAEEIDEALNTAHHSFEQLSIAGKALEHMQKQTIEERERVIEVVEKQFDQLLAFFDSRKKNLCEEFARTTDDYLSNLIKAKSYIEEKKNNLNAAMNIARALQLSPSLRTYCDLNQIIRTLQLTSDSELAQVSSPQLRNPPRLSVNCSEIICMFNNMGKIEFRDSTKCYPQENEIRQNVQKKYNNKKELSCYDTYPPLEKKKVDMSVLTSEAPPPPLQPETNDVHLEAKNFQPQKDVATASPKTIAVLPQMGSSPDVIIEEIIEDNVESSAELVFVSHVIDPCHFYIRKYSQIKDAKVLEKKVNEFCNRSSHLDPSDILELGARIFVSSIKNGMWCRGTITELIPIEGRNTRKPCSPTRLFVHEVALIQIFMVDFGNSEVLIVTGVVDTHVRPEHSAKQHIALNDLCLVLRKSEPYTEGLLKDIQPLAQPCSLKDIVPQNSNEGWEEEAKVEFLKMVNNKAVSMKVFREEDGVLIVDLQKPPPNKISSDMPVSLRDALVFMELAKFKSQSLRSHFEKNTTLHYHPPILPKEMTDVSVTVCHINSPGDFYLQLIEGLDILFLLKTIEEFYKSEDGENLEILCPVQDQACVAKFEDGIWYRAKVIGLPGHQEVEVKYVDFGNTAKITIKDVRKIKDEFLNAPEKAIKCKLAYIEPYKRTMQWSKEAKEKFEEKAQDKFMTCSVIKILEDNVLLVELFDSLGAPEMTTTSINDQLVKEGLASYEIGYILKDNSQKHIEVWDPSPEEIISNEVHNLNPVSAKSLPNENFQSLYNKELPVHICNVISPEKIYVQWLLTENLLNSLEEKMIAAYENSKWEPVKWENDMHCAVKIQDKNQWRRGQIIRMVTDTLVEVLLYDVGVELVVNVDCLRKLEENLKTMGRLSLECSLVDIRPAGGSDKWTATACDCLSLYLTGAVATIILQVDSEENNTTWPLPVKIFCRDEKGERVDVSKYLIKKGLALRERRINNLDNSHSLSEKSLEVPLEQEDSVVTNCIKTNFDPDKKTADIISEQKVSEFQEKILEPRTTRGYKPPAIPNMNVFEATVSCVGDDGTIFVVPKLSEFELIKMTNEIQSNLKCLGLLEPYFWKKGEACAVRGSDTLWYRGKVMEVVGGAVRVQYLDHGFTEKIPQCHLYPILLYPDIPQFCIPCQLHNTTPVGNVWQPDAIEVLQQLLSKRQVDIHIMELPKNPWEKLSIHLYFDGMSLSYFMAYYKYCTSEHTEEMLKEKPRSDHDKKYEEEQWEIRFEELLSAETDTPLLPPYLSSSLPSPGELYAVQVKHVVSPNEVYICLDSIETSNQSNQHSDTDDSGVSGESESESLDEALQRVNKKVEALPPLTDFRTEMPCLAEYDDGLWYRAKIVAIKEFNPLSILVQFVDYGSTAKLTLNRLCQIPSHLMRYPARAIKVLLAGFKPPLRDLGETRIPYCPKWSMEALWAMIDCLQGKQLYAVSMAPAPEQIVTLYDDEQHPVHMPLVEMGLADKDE
UniProt Q969X0: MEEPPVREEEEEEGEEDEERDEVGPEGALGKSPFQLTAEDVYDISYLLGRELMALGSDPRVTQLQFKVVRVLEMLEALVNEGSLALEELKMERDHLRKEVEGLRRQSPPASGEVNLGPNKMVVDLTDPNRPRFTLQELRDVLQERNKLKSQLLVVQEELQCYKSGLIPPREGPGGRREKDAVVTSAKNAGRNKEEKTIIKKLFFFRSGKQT
UniProt Q8WVD3: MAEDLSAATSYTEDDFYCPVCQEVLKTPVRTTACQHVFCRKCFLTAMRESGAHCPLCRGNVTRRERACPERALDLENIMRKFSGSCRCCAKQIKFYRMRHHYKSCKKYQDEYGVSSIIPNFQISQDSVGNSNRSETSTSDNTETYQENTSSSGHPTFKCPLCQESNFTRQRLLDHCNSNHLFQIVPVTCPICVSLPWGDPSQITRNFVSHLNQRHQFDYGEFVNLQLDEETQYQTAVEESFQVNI
UniProt Q9H9Y2: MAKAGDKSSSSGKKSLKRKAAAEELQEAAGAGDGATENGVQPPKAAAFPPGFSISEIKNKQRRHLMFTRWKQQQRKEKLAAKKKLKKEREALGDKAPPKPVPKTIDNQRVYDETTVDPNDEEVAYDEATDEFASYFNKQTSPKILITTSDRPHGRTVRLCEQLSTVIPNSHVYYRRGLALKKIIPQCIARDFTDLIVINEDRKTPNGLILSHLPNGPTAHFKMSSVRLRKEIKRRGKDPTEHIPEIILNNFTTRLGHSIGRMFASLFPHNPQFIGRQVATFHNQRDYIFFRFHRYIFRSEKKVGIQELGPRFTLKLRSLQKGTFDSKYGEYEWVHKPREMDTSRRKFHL
UniProt Q9H4P4: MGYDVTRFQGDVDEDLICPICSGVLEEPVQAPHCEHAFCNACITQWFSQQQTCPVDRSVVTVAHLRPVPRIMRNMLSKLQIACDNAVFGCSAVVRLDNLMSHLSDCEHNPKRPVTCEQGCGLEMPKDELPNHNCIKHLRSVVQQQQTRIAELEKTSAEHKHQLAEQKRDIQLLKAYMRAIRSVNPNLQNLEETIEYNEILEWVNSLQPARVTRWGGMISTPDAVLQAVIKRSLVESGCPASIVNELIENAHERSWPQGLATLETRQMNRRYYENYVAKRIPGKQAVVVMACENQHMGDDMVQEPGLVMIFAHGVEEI
UniProt Q13464: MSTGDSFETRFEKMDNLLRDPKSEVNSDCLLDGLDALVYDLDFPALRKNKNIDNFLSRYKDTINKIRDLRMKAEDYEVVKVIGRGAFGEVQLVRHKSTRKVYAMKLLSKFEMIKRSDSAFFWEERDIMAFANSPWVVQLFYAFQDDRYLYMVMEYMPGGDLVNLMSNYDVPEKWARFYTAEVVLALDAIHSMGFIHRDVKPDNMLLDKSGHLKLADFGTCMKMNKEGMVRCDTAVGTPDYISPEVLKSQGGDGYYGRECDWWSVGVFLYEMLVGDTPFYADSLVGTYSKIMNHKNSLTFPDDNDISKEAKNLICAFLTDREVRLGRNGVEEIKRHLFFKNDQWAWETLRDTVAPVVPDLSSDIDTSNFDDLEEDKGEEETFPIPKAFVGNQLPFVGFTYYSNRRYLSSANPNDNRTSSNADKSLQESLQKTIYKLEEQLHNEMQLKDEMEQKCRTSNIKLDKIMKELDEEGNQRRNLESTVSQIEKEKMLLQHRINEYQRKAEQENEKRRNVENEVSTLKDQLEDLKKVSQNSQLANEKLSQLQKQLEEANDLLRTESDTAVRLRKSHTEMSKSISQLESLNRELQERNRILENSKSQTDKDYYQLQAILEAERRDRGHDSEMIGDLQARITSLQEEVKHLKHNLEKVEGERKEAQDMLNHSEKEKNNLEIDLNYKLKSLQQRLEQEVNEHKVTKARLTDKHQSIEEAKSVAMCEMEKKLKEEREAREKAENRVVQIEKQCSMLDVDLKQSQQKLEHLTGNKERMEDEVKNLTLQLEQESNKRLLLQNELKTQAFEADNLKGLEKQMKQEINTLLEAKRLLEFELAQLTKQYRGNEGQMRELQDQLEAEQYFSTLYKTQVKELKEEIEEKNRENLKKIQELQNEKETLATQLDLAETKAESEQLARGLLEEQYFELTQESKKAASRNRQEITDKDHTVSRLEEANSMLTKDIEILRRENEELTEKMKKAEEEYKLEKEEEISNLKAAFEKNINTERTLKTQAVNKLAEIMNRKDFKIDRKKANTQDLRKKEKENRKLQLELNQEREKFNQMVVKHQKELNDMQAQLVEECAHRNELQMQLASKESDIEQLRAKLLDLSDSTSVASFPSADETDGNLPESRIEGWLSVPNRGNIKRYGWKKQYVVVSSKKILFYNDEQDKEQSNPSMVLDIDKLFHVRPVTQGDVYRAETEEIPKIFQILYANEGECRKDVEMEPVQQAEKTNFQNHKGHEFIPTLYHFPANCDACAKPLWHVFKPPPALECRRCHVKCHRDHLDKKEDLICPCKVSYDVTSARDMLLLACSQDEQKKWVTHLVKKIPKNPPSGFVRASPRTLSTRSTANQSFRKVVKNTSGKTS
UniProt O94955, whole entry, looked up: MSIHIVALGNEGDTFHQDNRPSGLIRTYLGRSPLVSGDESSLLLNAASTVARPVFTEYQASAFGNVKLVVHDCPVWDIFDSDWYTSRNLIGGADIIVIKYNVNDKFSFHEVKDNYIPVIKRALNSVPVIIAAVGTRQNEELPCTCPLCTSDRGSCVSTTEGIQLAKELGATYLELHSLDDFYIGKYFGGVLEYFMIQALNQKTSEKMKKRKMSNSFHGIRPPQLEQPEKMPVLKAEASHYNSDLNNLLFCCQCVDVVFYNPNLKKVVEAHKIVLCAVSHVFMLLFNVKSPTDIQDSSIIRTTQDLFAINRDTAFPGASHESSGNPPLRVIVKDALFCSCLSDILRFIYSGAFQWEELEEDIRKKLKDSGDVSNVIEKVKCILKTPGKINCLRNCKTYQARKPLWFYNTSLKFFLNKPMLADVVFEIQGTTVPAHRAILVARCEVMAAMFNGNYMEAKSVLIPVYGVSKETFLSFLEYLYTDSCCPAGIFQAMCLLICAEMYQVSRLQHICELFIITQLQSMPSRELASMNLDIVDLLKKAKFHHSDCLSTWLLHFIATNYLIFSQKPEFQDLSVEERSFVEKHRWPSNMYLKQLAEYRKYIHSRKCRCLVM
UniProt P17081: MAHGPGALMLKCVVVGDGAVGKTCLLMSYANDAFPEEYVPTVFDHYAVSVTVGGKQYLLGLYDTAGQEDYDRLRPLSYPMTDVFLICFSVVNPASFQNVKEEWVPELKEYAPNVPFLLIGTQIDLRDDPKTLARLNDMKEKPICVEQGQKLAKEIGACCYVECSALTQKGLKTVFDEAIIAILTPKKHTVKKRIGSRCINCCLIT
UniProt Q96E14: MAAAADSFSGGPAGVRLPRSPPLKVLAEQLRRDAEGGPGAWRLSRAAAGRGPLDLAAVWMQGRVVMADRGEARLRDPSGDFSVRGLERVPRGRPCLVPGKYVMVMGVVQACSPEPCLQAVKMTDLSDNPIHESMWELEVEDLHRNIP
UniProt Q92834: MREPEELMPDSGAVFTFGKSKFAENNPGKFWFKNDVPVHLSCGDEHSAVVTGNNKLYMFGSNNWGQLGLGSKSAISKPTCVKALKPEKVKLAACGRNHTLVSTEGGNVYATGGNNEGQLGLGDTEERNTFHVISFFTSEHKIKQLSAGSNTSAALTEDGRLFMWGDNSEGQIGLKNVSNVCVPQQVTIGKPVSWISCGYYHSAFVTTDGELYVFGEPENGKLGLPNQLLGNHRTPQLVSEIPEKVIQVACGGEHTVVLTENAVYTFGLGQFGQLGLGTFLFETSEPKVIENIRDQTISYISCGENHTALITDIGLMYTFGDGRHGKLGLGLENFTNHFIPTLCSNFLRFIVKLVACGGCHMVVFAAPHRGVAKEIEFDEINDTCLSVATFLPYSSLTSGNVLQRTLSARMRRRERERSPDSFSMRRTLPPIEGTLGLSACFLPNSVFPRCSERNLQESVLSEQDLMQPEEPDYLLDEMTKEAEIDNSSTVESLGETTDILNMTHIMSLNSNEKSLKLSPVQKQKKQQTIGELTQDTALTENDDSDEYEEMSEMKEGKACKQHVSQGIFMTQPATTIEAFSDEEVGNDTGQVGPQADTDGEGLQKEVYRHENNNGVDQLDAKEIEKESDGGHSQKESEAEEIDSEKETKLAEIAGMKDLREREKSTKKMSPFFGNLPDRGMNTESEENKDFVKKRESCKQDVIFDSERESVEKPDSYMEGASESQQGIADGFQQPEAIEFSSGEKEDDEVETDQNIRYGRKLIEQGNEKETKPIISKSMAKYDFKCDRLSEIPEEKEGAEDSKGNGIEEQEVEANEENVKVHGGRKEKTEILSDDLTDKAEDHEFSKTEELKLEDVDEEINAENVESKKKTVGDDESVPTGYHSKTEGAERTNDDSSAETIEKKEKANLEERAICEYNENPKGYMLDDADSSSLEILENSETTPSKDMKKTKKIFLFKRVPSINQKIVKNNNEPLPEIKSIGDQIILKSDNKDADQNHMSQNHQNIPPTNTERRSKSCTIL
UniProt Q9Y4L5, whole entry, looked up: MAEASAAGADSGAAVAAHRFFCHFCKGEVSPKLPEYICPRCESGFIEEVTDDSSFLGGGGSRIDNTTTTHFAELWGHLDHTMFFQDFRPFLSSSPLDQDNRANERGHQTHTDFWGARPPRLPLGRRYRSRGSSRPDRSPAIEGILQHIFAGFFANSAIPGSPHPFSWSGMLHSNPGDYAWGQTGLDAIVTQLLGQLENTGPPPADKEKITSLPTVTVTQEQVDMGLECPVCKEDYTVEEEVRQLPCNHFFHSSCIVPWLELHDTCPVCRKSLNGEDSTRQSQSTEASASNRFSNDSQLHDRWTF

Columns and labels:
Test in all cases: log2 fold change, soluble protein after heating vs DMSO (PISA); higher = thermal stabilisation; K562 lysate, 10 uM; active = over 0.2 and 3.5 SD of the protein, either way, in both replicates (recomputed)
dasatinib = compound: Cc1nc(Nc2ncc(C(=O)Nc3c(C)cccc3Cl)s2)cc(N2CCN(CCO)CC2)n1 [dasatinib]
Summary of the method: (§1)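 Pellets of K562 cells were dounce-homogenised in PBS pH 7.4 with 1 mM MgCl2, and the crude extract was held at 1 mg/mL protein for a 30 min treatment with 10 μM compound. Aliquots were heated for 3 min over 48°C-58°C and pooled before NP-40 was added to 0.5% at 4°C. The supernatant from 21,000xg for 90 min was quantified by TMTpro 16plex LC-MS/MS with channel sums equalised. Values are reported from duplicates as log-two fold change in thermal stability relative to solvent controls.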

[1] = compound: Cn1cc(-c2ccc3c(c2)CCN3C(=O)Cc2cccc(C(F)(F)F)c2)c2c(N)ncnc21
Summary of the method: as §1

quisinostat = compound: Cn1cc(CNCC2CCN(c3ncc(C(=O)NO)cn3)CC2)c2ccccc21 [quisinostat]
Summary of the method: as §1

[2] = compound: NC(=O)Nc1cc(-c2cccc(F)c2)sc1C(=O)N[C@H]1CCCNC1
Summary of the method: as §1

[3] = compound: NC1(c2ccc(-c3nc4ccn5c(=O)[nH]nc5c4cc3-c3ccccc3)cc2)CCC1
Summary of the method: as §1

vorinostat = compound: O=C(CCCCCCC(=O)Nc1ccccc1)NO [vorinostat]
Summary of the method: as §1

silmitasertib = compound: O=C(O)c1ccc2c(c1)nc(Nc1cccc(Cl)c1)c1ccncc12 [silmitasertib]
Summary of the method: as §1

[4] = compound: O=C1NC(=O)C(c2cnc3ccccn23)=C1c1cn2c3c(cc(F)cc13)CN(C(=O)N1CCCCC1)CC2
Summary of the method: as §1

nilotinib = compound: Cc1cn(-c2cc(NC(=O)c3ccc(C)c(Nc4nccc(-c5cccnc5)n4)c3)cc(C(F)(F)F)c2)cn1 [nilotinib]
Summary of the method: as §1

[5] = compound: Cc1nc(Nc2n[nH]c3c2CN(C(=O)N[C@H](CN(C)C)c2ccccc2)C3(C)C)c2sccc2n1
Summary of the method: as §1

[6] = compound: Cc1ncc(-c2ccnc(Nc3ccc(S(C)(=O)=O)cc3)n2)n1C(C)C
Summary of the method: as §1

tipifarnib = compound: Cn1cncc1[C@@](N)(c1ccc(Cl)cc1)c1ccc2c(c1)c(-c1cccc(Cl)c1)cc(=O)n2C [tipifarnib]
Summary of the method: as §1

[7] = compound: NC(=O)c1cnc(N[C@@H]2CCCC[C@@H]2N)nc1Nc1cccc(-n2nccn2)c1
Summary of the method: as §1

entospletinib = compound: c1cn2cc(-c3ccc4cn[nH]c4c3)nc(Nc3ccc(N4CCOCC4)cc3)c2n1 [entospletinib]
Summary of the method: as §1

[8] = compound: NCC(=O)Nc1ccc(-n2nc(C(F)(F)F)cc2-c2ccc3c(ccc4ccccc43)c2)cc1
Summary of the method: as §1

Measured: log2 fold change

RPL10, A0A087WV22
inactive: dasatinib -0.205 | [1] 0.053 | quisinostat 0.059 | [2] -0.016 | [3] 0.2 | vorinostat 0.347 | silmitasertib 0.183 | [4] 0.201

RNF185 (UniProt Q96GF1)
inactive: nilotinib 0.015 | [5] 0.033 | [6] 0.003 | tipifarnib -0.038 | [7] -0.053 | [3] -0.06 | vorinostat -0.138 | silmitasertib 0.06

RNF17 (UniProt Q9BXT8)
inactive: dasatinib -0.055 | [1] 0.061 | quisinostat 0.142 | [2] 0.054 | [7] 0.046 | [3] 0.043 | vorinostat -0.016 | silmitasertib -0.021 | [4] -0.106 | entospletinib 0.107

RNASEH2B, A0A1B0GUE7
inactive: nilotinib -0.01 | [5] 0.037 | [6] 0.211 | tipifarnib 0.067 | [7] 0.035

RILPL2 (UniProt Q969X0)
inactive: nilotinib -0.16 | [5] 0.007 | [6] 0.159 | quisinostat -0.058 | tipifarnib -0.06 | [2] 0.141 | [7] -0.009 | [3] 0.013 | vorinostat -0.075 | silmitasertib -0.073 | [4] 0.037

RNF138 (UniProt Q8WVD3)
inactive: nilotinib -0.05 | [5] 0.016 | dasatinib -0.057 | [6] -0.044 | [1] 0.015 | quisinostat 0.084 | tipifarnib 0.009 | [2] -0.071 | [8] 0.045 | [4] -0.051 | entospletinib 0.008

RPF1 (UniProt Q9H9Y2)
inactive: quisinostat 0.119 | [2] 0.087 | [7] -0.019 | [4] 0.069

RNF41 (UniProt Q9H4P4)
inactive: nilotinib 0.139 | [5] 0.26 | dasatinib -0.027 | [6] -0.189 | [1] 0.018 | quisinostat 0.014 | tipifarnib -0.156 | [2] -0.005 | [3] -0.095 | vorinostat -0.518 | silmitasertib 0.114 | [4] -0.079

ROCK1 (UniProt Q13464)
active: vorinostat -0.211
inactive: nilotinib -0.013 | [5] -0.001 | dasatinib -0.004 | [6] 0.006 | [1] 0.011 | quisinostat -0.01 | tipifarnib 0.001 | [7] 0.009 | [3] 0.013 | [8] 0 | [4] -0.017 | entospletinib -0.016

RHOBTB3 (UniProt O94955)
inactive: nilotinib -0.029 | [5] 0.175 | [6] 0.084 | tipifarnib 0.006 | [3] -0.184 | vorinostat -0.249 | silmitasertib 0.42 | entospletinib -0.044

RHOQ (UniProt P17081)
inactive: [8] 0.199 | entospletinib -0.132

Looked up one by one from the list above (two):
RHOQ (UniProt P17081)
inactive: [8] 0.199 | entospletinib -0.132

ROCK1 (UniProt Q13464)
active: vorinostat -0.211
inactive: nilotinib -0.013 | [5] -0.001 | dasatinib -0.004 | [6] 0.006 | [1] 0.011 | quisinostat -0.01 | tipifarnib 0.001 | [7] 0.009 | [3] 0.013 | [8] 0 | [4] -0.017 | entospletinib -0.016

The listing continues:

RNF4 (UniProt P78317)
inactive: nilotinib 0.015 | [5] 0.158 | [6] 0.042 | quisinostat 0.198 | tipifarnib -0.281 | [2] -0.103 | [8] -0.063 | [4] 0.175 | entospletinib -0.079

RNF111 isoform 3 (UniProt Q6ZNA4)
inactive: quisinostat 0.102 | [2] -0.019 | [4] -0.028

RMI2 (UniProt Q96E14)
active: vorinostat -0.586
inactive: dasatinib -0.049 | [1] -0.044 | quisinostat -0.051 | [2] 0.021 | [3] 0.082 | [8] -0.008 | silmitasertib 0.092 | [4] 0.041 | entospletinib -0.01

RPGR (UniProt Q92834)
inactive: quisinostat 0.031 | [2] -0.003 | [4] -0.028

RNF115 (UniProt Q9Y4L5)
inactive: nilotinib -0.29 | [5] 0.131 | [6] 0.066 | quisinostat 0.061 | tipifarnib -0.267 | [2] -0.038 | [8] 0.013 | [4] 0.056

RNF5 (UniProt Q99942)
inactive: nilotinib -0.036 | [5] -0.013 | dasatinib -0.209 | [6] 0.024 | [1] 0.038 | quisinostat 0 | tipifarnib -0.027 | [2] -0.053 | [3] 0.06 | vorinostat 0.021 | silmitasertib 0.076 | [4] 0.108 | entospletinib -0.022
